{"source": "patent US6599896B1", "about": "(Les Laboratoires Servier, priority 1999, dated 2003)", "test_system": "cortical neurons in culture", "test": "In vitro neurotoxicity caused by hypoxia in cortical cells (LDH activity)", "assay_type": "cell-based, rat", "conditions": "3 hours hypoxia, LDH after 24 hours", "method": "Cortical cells are extracted from Sprague-Dawley rat foetuses and cultured in MEM (minimum essential medium) containing 5% horse serum and 5% calf foetus serum. The cultures are maintained at 37° C. in an atmosphere of 93% air and 7% CO2. Just before hypoxia, the culture medium is replaced by 300 μl of saline solution buffered with HEPES (HCSS). The cells are incubated for 10 minutes under these conditions at ambient temperature. […] The culture media are then replaced by 300 μl of deoxygenated PIPES buffer at pH 7.4.\nThe cells are then incubated for 3 hours in a hypoxic atmosphere containing 95% N2 and 5% O2 at 37° C. The culture media are then replaced by 200 μl of MEM without serum and the cells are incubated again for 24 hours at 37° C. under standard conditions. After morphological examination of the cells, the culture supernatants are collected and the lactate dehydrogenase (LDH) activity therein is measured."}
{"smiles": "CN1c2ccccc2C(NCCCCCCC(=O)O)c2ccc(Cl)cc2S1(=O)=O", "note": "(stereo not drawn) [tianeptine]", "values": [{"measurement": "reduction of neurotoxicity caused by hypoxia (LDH activity)", "setting": "1 μM", "value": 98.8, "unit": "%"}, {"measurement": "reduction of neurotoxicity caused by hypoxia (LDH activity)", "setting": "10 μM", "value": 91.7, "unit": "%"}, {"measurement": "reduction of neurotoxicity caused by hypoxia (LDH activity)", "setting": "100 μM", "value": 91.4, "unit": "%"}]}
